Patent US20230310813A1, “DIMERIC NAPHTHALIMIDE COATING” (ALUCENT BIOMEDICAL, INC., priority 2020, published 2023)
At least one read-out could not be matched to a standard name with certainty.

Assay: Solubility of Compound of Formula (I) in solvent systems
Type: physicochemical
Conditions: solvent system comprising ethanol, water, and acetic acid
Procedure: The non-limiting exemplary and comparative solvent systems listed in Table 1 were prepared by combining the components of the solvent system at the indicated concentrations. The resulting mixture was then mixed at room temperature until a colorless, clear mixture was obtained. Compound of Formula (I) was then added in the indicated amount and the resulting mixture was mixed at room temperature until a yellow/orange translucent mixture was obtained.
The solubility and stability of solvent systems were determined.

Which solubilization does the source give for `NCCOCCOCCNc1ccc2c3c(cccc13)C(=O)N(CCOCCOCCN1C(=O)c3cccc4c(NCCOCCOCCN)ccc(c34)C1=O)C2=O` [Compound of Formula (I), 2,2′-((ethane-1,2-diylbis(oxy))bis(ethane-2,1-diyl))bis(6-((2-(2-(2-aminoethoxy)ethoxy)ethyl)amino)-1H-benzo[de]isoquinoline-1,3(2H)-dione)] here?
The solubilization was “remains solubilized”.
